Assay results reported in the supplement of paper PMC10849652.
This is one part of the list.

By UniProt entry, the sequences of proteins in these tests, tags left out. Where a name states a change or a piece, a line headed by the entry shows the natural chain unless it says otherwise.
UniProt Q9Y6H3: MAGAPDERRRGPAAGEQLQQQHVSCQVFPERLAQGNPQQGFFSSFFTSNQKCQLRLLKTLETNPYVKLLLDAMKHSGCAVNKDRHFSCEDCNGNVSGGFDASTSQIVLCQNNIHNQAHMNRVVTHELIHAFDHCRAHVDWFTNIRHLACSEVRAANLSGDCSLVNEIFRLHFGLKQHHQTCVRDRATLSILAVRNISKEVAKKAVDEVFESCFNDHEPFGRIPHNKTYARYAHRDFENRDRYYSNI
UniProt Q9UBL3, whole entry, looked up: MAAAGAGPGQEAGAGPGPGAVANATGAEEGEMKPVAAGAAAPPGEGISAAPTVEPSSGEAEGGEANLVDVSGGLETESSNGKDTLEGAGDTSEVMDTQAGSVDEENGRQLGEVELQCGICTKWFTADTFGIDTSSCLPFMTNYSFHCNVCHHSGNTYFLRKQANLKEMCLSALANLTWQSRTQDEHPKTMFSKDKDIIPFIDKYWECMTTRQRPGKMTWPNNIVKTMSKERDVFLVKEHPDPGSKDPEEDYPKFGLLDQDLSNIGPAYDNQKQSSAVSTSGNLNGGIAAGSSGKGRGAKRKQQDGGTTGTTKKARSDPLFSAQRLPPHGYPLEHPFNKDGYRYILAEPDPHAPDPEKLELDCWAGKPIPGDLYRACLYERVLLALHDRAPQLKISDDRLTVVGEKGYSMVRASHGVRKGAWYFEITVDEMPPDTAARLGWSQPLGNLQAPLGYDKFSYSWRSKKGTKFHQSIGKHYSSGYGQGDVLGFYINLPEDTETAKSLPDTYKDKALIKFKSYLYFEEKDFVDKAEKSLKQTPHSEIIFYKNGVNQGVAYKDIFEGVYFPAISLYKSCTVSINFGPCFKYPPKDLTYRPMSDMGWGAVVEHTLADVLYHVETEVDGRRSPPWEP
UniProt Q96A05, whole entry, looked up: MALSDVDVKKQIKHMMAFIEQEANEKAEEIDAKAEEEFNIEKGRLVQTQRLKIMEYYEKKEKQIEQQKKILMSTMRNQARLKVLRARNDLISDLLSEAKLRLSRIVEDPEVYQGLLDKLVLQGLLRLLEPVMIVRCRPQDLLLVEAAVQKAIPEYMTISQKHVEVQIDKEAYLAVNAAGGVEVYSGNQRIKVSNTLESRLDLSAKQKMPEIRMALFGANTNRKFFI
UniProt Q9BSB4: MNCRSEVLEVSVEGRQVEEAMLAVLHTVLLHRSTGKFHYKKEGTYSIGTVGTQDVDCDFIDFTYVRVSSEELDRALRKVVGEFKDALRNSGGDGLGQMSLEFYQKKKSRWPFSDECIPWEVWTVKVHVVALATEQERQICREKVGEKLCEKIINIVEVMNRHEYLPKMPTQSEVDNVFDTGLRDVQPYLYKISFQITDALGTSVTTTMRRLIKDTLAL
UniProt Q9NWX5: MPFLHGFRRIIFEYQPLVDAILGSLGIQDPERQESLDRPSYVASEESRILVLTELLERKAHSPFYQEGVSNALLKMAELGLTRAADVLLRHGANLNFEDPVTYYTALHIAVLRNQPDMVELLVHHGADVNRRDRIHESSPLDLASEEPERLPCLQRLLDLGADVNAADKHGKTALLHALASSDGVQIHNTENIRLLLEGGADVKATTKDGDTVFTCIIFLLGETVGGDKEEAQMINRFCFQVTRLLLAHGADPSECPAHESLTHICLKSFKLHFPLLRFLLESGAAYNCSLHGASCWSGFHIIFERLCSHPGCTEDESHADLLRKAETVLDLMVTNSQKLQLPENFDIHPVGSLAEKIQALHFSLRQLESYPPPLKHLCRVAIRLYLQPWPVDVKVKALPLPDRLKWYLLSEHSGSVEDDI
UniProt P98196: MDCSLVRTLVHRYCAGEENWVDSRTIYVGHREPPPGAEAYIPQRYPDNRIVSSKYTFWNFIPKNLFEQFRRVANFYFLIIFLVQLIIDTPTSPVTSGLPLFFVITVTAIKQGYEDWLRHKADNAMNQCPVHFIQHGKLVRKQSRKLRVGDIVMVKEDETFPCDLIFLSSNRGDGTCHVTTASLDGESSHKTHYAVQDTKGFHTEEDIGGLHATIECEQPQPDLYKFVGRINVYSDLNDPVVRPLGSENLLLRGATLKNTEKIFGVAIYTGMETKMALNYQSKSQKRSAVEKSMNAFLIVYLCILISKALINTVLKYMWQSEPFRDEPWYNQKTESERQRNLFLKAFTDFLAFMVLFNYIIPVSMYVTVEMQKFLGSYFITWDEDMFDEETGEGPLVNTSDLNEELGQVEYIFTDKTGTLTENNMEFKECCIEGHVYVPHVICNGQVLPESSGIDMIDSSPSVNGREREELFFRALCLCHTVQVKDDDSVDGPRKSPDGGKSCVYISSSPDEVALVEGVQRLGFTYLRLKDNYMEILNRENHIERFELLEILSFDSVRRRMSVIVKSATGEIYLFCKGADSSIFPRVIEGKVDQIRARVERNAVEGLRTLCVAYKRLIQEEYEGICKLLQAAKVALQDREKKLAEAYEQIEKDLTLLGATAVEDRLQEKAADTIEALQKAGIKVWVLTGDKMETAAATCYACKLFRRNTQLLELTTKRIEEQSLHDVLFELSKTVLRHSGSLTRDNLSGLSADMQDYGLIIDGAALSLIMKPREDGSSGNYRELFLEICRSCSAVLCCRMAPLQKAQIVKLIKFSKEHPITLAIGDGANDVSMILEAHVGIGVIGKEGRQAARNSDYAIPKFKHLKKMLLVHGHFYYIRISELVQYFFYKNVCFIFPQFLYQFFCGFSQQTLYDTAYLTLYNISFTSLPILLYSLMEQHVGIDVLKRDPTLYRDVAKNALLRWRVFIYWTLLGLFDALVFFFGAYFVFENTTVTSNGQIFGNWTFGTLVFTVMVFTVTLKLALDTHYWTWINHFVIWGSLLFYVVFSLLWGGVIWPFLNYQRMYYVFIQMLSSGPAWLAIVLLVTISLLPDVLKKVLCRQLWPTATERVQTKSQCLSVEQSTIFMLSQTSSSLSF
UniProt P36543, whole entry, looked up: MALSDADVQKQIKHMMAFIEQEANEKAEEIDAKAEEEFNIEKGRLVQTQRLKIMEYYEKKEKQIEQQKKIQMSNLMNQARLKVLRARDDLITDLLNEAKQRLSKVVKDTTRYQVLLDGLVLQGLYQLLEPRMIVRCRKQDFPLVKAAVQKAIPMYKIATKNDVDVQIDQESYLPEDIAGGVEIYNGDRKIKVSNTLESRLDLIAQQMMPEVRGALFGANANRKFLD
UniProt P18859: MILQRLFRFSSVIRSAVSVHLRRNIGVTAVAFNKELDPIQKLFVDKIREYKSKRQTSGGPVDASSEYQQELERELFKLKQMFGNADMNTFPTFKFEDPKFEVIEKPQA
UniProt O95352: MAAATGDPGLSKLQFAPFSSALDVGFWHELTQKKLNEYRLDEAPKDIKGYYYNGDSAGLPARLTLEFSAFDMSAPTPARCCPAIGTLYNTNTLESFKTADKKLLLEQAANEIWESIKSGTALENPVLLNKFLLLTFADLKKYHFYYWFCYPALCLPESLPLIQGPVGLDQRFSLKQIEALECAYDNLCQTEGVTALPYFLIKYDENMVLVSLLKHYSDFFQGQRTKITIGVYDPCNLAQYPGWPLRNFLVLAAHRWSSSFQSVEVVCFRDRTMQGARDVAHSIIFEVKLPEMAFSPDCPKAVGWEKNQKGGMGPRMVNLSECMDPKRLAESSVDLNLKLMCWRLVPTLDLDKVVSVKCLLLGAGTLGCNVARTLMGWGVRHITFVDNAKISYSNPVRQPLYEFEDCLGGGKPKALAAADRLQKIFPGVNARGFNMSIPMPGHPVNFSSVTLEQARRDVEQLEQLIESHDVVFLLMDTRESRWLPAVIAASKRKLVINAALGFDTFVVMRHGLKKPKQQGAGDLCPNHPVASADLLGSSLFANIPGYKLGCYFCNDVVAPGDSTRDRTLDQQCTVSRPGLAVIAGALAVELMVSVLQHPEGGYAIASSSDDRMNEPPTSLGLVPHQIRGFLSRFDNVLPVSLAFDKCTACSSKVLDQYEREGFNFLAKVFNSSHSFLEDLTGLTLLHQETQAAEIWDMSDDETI
UniProt Q8NBF6: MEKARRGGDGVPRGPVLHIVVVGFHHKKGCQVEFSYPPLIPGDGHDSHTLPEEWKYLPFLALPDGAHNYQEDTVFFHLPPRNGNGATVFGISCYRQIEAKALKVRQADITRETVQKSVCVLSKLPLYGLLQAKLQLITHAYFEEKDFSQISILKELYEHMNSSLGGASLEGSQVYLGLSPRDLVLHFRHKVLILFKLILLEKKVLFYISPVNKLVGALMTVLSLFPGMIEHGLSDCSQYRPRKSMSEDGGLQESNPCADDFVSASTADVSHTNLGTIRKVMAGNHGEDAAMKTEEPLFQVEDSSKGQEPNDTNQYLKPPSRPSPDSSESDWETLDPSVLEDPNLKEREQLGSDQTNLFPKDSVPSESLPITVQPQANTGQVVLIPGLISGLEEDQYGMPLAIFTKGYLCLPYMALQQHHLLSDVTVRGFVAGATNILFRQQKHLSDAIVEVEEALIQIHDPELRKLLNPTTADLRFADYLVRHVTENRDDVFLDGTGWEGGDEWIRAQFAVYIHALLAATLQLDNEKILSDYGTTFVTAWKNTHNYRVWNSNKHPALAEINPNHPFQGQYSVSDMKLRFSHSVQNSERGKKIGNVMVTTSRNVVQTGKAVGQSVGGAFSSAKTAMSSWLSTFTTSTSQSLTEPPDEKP
UniProt Q16864, whole entry, looked up: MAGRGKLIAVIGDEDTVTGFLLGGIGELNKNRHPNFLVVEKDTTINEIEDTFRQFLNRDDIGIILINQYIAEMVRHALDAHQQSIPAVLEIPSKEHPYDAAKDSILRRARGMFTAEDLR
UniProt P04424, whole entry, looked up: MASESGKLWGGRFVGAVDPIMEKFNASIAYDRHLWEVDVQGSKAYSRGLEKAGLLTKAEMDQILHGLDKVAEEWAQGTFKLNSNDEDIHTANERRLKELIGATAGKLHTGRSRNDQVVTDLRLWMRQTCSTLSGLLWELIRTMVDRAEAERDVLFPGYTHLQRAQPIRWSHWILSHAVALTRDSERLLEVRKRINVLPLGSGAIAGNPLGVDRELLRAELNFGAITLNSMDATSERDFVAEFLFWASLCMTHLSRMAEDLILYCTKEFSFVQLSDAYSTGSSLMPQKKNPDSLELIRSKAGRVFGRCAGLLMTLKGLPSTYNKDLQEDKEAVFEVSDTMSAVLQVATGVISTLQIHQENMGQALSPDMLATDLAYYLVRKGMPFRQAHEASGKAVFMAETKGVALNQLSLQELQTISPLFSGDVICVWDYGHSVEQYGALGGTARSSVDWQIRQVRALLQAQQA
UniProt Q9UBB4: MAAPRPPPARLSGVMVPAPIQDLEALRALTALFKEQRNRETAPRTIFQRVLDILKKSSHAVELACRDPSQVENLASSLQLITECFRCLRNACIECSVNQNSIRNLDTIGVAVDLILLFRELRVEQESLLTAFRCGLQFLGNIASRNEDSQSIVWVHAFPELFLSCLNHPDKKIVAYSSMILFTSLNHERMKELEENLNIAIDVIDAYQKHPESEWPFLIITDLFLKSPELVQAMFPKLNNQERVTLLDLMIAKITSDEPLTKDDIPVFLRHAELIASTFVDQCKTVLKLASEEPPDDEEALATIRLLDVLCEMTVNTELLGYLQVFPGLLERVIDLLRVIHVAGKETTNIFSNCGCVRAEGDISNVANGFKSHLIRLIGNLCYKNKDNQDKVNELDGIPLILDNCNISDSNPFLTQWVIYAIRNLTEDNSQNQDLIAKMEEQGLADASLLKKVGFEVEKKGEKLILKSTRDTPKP
UniProt Q9NVP2, whole entry, looked up: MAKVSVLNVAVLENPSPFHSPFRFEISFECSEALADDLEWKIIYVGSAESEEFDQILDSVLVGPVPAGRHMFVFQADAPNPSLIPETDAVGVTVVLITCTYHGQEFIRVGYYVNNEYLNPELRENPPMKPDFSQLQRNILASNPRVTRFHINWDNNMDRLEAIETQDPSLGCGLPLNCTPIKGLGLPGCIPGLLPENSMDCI
UniProt Q96DT6: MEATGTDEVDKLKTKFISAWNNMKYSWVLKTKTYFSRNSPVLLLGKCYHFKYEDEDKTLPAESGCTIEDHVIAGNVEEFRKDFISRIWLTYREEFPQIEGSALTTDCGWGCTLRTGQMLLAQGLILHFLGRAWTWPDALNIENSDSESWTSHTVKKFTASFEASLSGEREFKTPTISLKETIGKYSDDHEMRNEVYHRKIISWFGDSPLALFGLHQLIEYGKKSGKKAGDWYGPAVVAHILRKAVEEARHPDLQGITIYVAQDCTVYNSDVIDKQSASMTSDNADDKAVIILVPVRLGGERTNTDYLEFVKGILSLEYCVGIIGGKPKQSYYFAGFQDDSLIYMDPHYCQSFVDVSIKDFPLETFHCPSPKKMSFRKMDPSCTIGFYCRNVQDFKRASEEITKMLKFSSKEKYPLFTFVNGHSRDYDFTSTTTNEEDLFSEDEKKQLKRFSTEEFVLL
UniProt P48047: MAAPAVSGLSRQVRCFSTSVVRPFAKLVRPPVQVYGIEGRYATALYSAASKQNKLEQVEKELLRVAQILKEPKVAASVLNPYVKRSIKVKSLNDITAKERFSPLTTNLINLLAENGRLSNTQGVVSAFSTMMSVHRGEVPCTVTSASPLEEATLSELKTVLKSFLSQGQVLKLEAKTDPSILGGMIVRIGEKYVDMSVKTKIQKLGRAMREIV

Each target was assayed with C1=CC(=CC=C1C2=NC3=C(N2)C=C(C=C3)C(=O)N)OC4=CC=C(C=C4)Cl (assay: log2 fold change, soluble protein after heating vs DMSO (PISA); higher = thermal stabilisation; K562 lysate, 10 uM; active = over 0.2 and 3.5 SD of the protein, either way, in both replicates (recomputed)).
In short: (§1)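 Pellets of K562 cells were dounce-homogenised in PBS pH 7.4 with 1 mM MgCl2, and the crude extract was held at 1 mg/mL protein for a 30 min treatment with 10 μM compound. Aliquots were heated for 3 min over 48°C-58°C and pooled before NP-40 was added to 0.5% at 4°C. The supernatant from 21,000xg for 90 min was quantified by TMTpro 16plex LC-MS/MS with channel sums equalised. Values are reported from duplicates as log-two fold change in thermal stability relative to solvent controls.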

log2 fold change, inactive:
B3GLCT (UniProt Q6Y288) -0.021, ATP13A1 (UniProt Q9HD20) -0.153, ATP5F1C (UniProt P36542) 0.008, ATP2B4 (UniProt P23634) 0.012, ATP5F1D (UniProt P30049) -0.043, ATP23 (UniProt Q9Y6H3) -0.065, ATXN3 isoform 1 (UniProt P54252) 0.001, AZGP1 (UniProt P25311) -0.304, ASH2L (UniProt Q9UBL3) 0.002, ATG9A (UniProt Q7Z3C6) 0.022, ATP6V1E2 (UniProt Q96A05) 0.028, ATP1A1 (UniProt P05023) 0.016, ATG101 (UniProt Q9BSB4) 0.01, B2M (UniProt P61769) -0.044, ASB6 (UniProt Q9NWX5) 0.04, ATP11A (UniProt P98196) -0.033, ATP6V1E1 (UniProt P36543) 0.02, ATP5PF isoform 2 (UniProt P18859) -0.021, ATP13A2 (UniProt Q9NQ11) 0, ATG7 (UniProt O95352) 0.035, ATRIP (UniProt Q8WXE1) -0.023, AVL9 (UniProt Q8NBF6) 0.006, ATP6V1F isoform 2 (UniProt Q16864) -0.015, ASL (UniProt P04424) 0.017, ATE1 isoform 2 (UniProt O95260) 0.002, ATP1A3 isoform 3 (UniProt P13637) 0.027, ATXN10 (UniProt Q9UBB4) 0.003, ATP6V1B2 (UniProt P21281) 0.022, ATG2A isoform 3 (UniProt Q2TAZ0) -0.103, ASF1B (UniProt Q9NVP2) 0.019, ATG4C (UniProt Q96DT6) -0.014, ATP1A4 (UniProt Q13733) 0.001, ASNA1 (UniProt O43681) -0.031, ATP5PO (UniProt P48047) -0.019

Each target was assayed with C1=CC2=C(C=CC(=C2)/C=C\3/C(=O)NC(=NCC4=CC=CS4)S3)N=C1 in the same assay as above.
In short: as §1

log2 fold change, inactive:
B3GLCT (UniProt Q6Y288) 0.03, ATP13A1 (UniProt Q9HD20) 0.024, ATP5F1C (UniProt P36542) -0.006, ATP2B4 (UniProt P23634) 0.024, ATP5F1D (UniProt P30049) -0.003, ATP23 (UniProt Q9Y6H3) -0.138, ATXN3 isoform 1 (UniProt P54252) 0.059, AZGP1 (UniProt P25311) -0.24, ASH2L (UniProt Q9UBL3) -0.015, ATG9A (UniProt Q7Z3C6) 0.073, ATP6V1E2 (UniProt Q96A05) -0.039, ATP1A1 (UniProt P05023) -0.017, ATG101 (UniProt Q9BSB4) 0.026, B2M (UniProt P61769) 0.011, ASB6 (UniProt Q9NWX5) -0.094, ATP11A (UniProt P98196) -0.011, ATP6V1E1 (UniProt P36543) 0.001, ATP5PF isoform 2 (UniProt P18859) 0.011, ATP13A2 (UniProt Q9NQ11) 0.023, ATG7 (UniProt O95352) 0.001, ATRIP (UniProt Q8WXE1) 0.227, AVL9 (UniProt Q8NBF6) -0.013, ATP6V1F isoform 2 (UniProt Q16864) 0, ASL (UniProt P04424) -0.004, ATE1 isoform 2 (UniProt O95260) -0.063, ATP1A3 isoform 3 (UniProt P13637) 0.004, ATXN10 (UniProt Q9UBB4) 0.031, ATP6V1B2 (UniProt P21281) -0.005, ATG2A isoform 3 (UniProt Q2TAZ0) -0.041, ASF1B (UniProt Q9NVP2) 0.091, ATG4C (UniProt Q96DT6) 0.05, ATP1A4 (UniProt Q13733) -0.002, ASNA1 (UniProt O43681) 0.005, ATP5PO (UniProt P48047) -0.006
